Drawing on publication PMC3009664, this text covers binding for one substance.

Chains of the proteins cited; added tags and fusions are not shown.
UniProt P41232: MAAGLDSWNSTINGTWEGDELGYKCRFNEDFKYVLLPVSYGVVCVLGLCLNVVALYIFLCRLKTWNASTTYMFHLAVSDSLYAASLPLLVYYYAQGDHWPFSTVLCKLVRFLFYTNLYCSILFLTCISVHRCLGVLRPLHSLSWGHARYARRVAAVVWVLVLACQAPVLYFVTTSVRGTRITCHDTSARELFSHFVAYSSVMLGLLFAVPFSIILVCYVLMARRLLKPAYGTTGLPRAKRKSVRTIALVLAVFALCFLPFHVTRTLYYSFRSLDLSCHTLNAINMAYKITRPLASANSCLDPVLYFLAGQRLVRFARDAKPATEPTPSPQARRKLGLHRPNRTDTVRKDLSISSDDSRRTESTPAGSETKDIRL

For the assay, the target named is T1, adenosine A1 receptor (rat (endogenous in rat brain)) (UniProt P25099).
T1 sequence: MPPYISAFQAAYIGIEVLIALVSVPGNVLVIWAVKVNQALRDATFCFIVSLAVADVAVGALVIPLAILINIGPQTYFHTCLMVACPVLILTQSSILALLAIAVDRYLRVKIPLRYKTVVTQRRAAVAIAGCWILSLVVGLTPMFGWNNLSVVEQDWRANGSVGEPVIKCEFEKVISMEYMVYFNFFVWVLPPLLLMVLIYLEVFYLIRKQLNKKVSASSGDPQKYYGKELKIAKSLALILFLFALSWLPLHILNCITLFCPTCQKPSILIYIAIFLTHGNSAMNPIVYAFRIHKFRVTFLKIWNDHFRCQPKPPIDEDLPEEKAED
The assay is described as follows: co-IP; membrane extracts of rat cerebral cortex, cerebellum and hippocampus (50 mM Tris-HCl pH 7.4, 1% Triton X-100, 300 mM NaCl, 4°C) immunoprecipitated with anti-A1R and Protein G-Sepharose; immunoblot with anti-P2Y2R.

Results are given in words; binding and its absence hold for the method and conditions named. In cells and extracts the contact can be indirect. Some entries that bind do so weakly or less than the wild type.

With “P2Y2 purinergic receptor (from UniProt P41232 1-374)”, the binding result was “binds”.
